In the supplement of paper PMC8728848:
This is one part of the list.

Experiments:
Experiment in all cases: glycan array binding signal (z-score within array); higher = stronger binding
Settings in all cases: glycan notation: IUPAC condensed, linker removed
[1] = target: Neu5Ac(a2-6)Gal(b1-4)GlcNAc(b1-6)GalNAc
How it was run: (§1)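 Columns mapping to the same glycan were averaged after glycan names were converted to IUPAC-condensed notation. The data come from 3228 arrays in the Consortium for Functional Glycomics database, limited to those with an available protein sequence. Binding is reported as a within-array Z-score averaged across arrays of one protein sequence and across linkers.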

[2] = target: Neu5Ac(a2-6)Gal(b1-4)GlcNAc(b1-6)[Gal(b1-3)GlcNAc(b1-3)]Gal(b1-4)Glc
How it was run: as §1

[3] = target: Neu5Ac(a2-6)Gal(b1-4)GlcNAc(b1-6)[Gal(b1-3)]GalNAc
How it was run: as §1

[4] = target: Neu5Ac(a2-6)Gal(b1-4)GlcNAc6S
How it was run: as §1

[5] = target: Neu5Ac(a2-6)GalNAc
How it was run: as §1

[6] = target: Neu5Ac(a2-6)GalNAc(b1-4)GlcNAc
How it was run: as §1

[7] = target: Neu5Ac(a2-6)GalNAc(b1-4)GlcNAc6S
How it was run: as §1

[8] = target: Neu5Ac(a2-6)GlcNAc(b1-4)GlcNAc
How it was run: as §1

[9] = target: Neu5Ac(a2-6)GlcNAc(b1-4)GlcNAc(b1-4)GlcNAc
How it was run: as §1

[10] = target: Neu5Ac(a2-8)Neu5Ac
How it was run: as §1

[11] = target: Neu5Ac(a2-8)Neu5Ac(a2-3)Gal(b1-3)GalNAc(b1-4)[Neu5Ac(a2-3)]Gal(b1-4)Glc
How it was run: as §1

[12] = target: Neu5Ac(a2-8)Neu5Ac(a2-3)Gal(b1-3)GalNAc(b1-4)[Neu5Ac(a2-8)Neu5Ac(a2-3)]Gal(b1-4)Glc
How it was run: as §1

[13] = target: Neu5Ac(a2-8)Neu5Ac(a2-3)Gal(b1-4)Glc
How it was run: as §1

[14] = target: Neu5Ac(a2-8)Neu5Ac(a2-3)Gal(b1-4)GlcNAc
How it was run: as §1

[15] = target: Neu5Ac(a2-8)Neu5Ac(a2-3)[Gal(b1-3)GalNAc(b1-4)]Gal(b1-4)Glc
How it was run: as §1

[16] = target: Neu5Ac(a2-8)Neu5Ac(a2-3)[GalNAc(b1-4)]Gal(b1-4)Glc
How it was run: as §1

[17] = target: Neu5Ac(a2-8)Neu5Ac(a2-8)Neu5Ac
How it was run: as §1

[18] = target: Neu5Ac(a2-8)Neu5Ac(a2-8)Neu5Ac(a2-3)Gal(b1-4)Glc
How it was run: as §1

[19] = target: Neu5Ac(a2-8)Neu5Ac(a2-8)Neu5Ac(a2-3)[Gal(b1-3)GalNAc(b1-4)]Gal(b1-4)Glc
How it was run: as §1

[20] = target: Neu5Ac(a2-8)Neu5Ac(a2-8)Neu5Ac(a2-3)[GalNAc(b1-4)]Gal(b1-4)Glc
How it was run: as §1

[21] = target: Neu5Ac(a2-8)Neu5Ac(a2-8)Neu5Ac(a2-8)Neu5Ac(a2-3)[GalNAc(b1-4)]Gal(b1-4)Glc
How it was run: as §1

[22] = target: Neu5Ac(a2-8)Neu5Gc(a2-3)Gal(b1-4)GlcNAc
How it was run: as §1

[23] = target: Neu5Ac(b2-6)Gal(b1-4)GlcNAc
How it was run: as §1

[24] = target: Neu5Ac(b2-6)GalNAc
How it was run: as §1

[25] = target: Neu5Ac9Ac(a2-3)Gal(b1-3)GlcNAc
How it was run: as §1

[26] = target: Neu5Ac9Ac(a2-3)Gal(b1-4)GlcNAc
How it was run: as §1

[27] = target: Neu5Ac9Ac(a2-6)Gal(b1-4)GlcNAc
How it was run: as §1

[28] = target: Neu5Gc(a2-3)Gal(b1-3)GlcNAc
How it was run: as §1

[29] = target: Neu5Gc(a2-3)Gal(b1-3)[Fuc(a1-4)]GlcNAc
How it was run: as §1

[30] = target: Neu5Gc(a2-3)Gal(b1-4)Glc
How it was run: as §1

[31] = target: Neu5Gc(a2-3)Gal(b1-4)GlcNAc
How it was run: as §1

[32] = target: Neu5Gc(a2-3)Gal(b1-4)GlcNAc(b1-3)Gal(b1-4)GlcNAc(b1-2)Man(a1-3)[Neu5Gc(a2-3)Gal(b1-4)GlcNAc(b1-3)Gal(b1-4)GlcNAc(b1-2)Man(a1-6)]Man(b1-4)GlcNAc(b1-4)GlcNAc
How it was run: as §1

[33] = target: Neu5Gc(a2-3)Gal(b1-4)[Fuc(a1-3)]GlcNAc
How it was run: as §1

[34] = target: Neu5Gc(a2-6)Gal(b1-4)GlcNAc
How it was run: as §1

[35] = target: Neu5Gc(a2-6)GalNAc
How it was run: as §1

[36] = target: Neu5Gc(a2-8)Neu5Ac(a2-3)Gal(b1-4)GlcNAc
How it was run: as §1

[37] = target: Neu5Gc(a2-8)Neu5Gc(a2-3)Gal(b1-4)GlcNAc
How it was run: as §1

[38] = target: Neu5Gc(a2-8)Neu5Gc(a2-3)Gal(b1-4)GlcNAc(b1-3)Gal(b1-4)GlcNAc
How it was run: as §1

B1: Epa3to2 (Candida glabrata) (protein)
chain: MGSSHHHHHHSSGLVPRGSHMKRELSSQNPFGYPIGCSPQDVAIIPGLTMELYSYPIVSGTPPNCYDASYVDPEYPRTGYLKRKMVGKSTGVTGNLNYKYSVEKACMVKYGNLPAGYNYNEPLTVSNFTMILYGYFKAQTTGLHTFFVNADDLLYINFGAGNAFDCCKREDSKTKLGEYVAYDIWHVDSSKNKVSLFLEKDLYYPIRMFFNNRDNNSSLDLSFSVNGATDQISDFSGYLYSVPDQPDTCPAHIGYDTTCR
In the case of B1, the “glycan array binding signal (z-score)” value [1] is reported as -0.131, the “glycan array binding signal (z-score)” value [2] is reported as 0.007 and the “glycan array binding signal (z-score)” value [3] is reported as -0.973. The “glycan array binding signal (z-score)” value [4] was -0.651, the “glycan array binding signal (z-score)” value [5] was 0.437 and the “glycan array binding signal (z-score)” value [6] was -0.698. For the same binder, the “glycan array binding signal (z-score)” value [7] was -1.08, the “glycan array binding signal (z-score)” value [8] was -0.614 and the “glycan array binding signal (z-score)” value [9] was -1.01. For the same binder, the “glycan array binding signal (z-score)” value [10] was 1.01, the “glycan array binding signal (z-score)” value [11] was 1.15 and the “glycan array binding signal (z-score)” value [12] was 0.096. The “glycan array binding signal (z-score)” value [13] was -0.638, the “glycan array binding signal (z-score)” value [14] was 0.968 and the “glycan array binding signal (z-score)” value [15] was -0.449. The “glycan array binding signal (z-score)” value [16] was -0.072, the “glycan array binding signal (z-score)” value [17] was 0.097 and the “glycan array binding signal (z-score)” value [18] was -0.732. The “glycan array binding signal (z-score)” value [19] was -0.828, the “glycan array binding signal (z-score)” value [20] was 0.534 and the “glycan array binding signal (z-score)” value [21] was 0.003. For the same binder, the “glycan array binding signal (z-score)” value [22] was -0.595, the “glycan array binding signal (z-score)” value [23] was -0.873 and the “glycan array binding signal (z-score)” value [24] was -1.11. For the same binder, the “glycan array binding signal (z-score)” value [25] was 0.098, the “glycan array binding signal (z-score)” value [26] was -1.22 and the “glycan array binding signal (z-score)” value [27] was -0.257. For the same binder, the “glycan array binding signal (z-score)” value [28] was 0.144, the “glycan array binding signal (z-score)” value [29] was -0.394 and the “glycan array binding signal (z-score)” value [30] was 0.038. The “glycan array binding signal (z-score)” value [31] was 0.238, the “glycan array binding signal (z-score)” value [32] was -0.277 and the “glycan array binding signal (z-score)” value [33] was 0.62. The “glycan array binding signal (z-score)” value [34] was 0.391, the “glycan array binding signal (z-score)” value [35] was 2.12 and the “glycan array binding signal (z-score)” value [36] was -1.36. The “glycan array binding signal (z-score)” value [37] was -0.979 and the “glycan array binding signal (z-score)” value [38] was -0.803.
